# Source: PMC8889267
# T1: CLPC1-TRAP-STREPII (Arabidopsis thaliana) (UniProt Q9FI56)
# T1 sequence: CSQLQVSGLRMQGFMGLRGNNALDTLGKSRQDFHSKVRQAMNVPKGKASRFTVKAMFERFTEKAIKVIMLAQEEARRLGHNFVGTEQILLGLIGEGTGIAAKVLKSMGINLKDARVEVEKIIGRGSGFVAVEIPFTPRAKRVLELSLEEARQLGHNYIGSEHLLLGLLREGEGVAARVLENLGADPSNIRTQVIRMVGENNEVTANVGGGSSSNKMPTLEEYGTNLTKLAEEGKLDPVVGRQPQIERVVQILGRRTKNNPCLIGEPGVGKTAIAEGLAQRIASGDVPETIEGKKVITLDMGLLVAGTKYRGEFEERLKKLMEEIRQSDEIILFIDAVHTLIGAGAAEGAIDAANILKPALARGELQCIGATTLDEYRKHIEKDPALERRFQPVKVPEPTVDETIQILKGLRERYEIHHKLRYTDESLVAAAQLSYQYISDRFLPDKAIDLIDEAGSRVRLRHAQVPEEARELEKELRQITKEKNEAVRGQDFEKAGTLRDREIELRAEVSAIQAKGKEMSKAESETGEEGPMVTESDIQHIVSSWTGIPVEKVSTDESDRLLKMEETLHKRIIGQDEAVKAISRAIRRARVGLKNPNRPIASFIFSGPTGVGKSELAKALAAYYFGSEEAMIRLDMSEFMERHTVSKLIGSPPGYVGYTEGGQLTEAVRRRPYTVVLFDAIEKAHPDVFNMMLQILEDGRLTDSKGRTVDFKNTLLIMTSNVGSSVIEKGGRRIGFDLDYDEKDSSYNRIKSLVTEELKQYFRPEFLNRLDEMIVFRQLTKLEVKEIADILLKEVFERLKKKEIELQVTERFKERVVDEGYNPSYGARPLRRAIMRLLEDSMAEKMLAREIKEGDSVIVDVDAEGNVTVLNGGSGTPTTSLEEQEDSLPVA
# Molecular target: T1, CLPC1-TRAP-STREPII (Arabidopsis thaliana)
# Test: affinity purification with mass spectrometry; STREPII-tagged CLPC1-WT or CLPC1-TRAP from soluble leaf proteome of transgenic Arabidopsis rosettes, nondenaturing; StrepTactinXT beads, 50 mM Hepes-KOH pH 8.0, 15% glycerol, 10 mM MgCl2, 75 mM NaCl, eluted with 2.5 mM biotin; SDS-PAGE, in-gel trypsin digest, LC-MS/MS, spectral counting; three biological replicates; CGEP-STREP eluates as negative control
row,Binder,binding
1,"arogenate dehydratase 2 (ADT2) (protein, UniProt Q9SSE7 67-381) AMEVKKIFEDSPLLPKPLSSNQLTESVSNGSRVRVAYQGVRGAYSESAAEKAYPNCEAVPCEEFDTAFEAVERWLVDRAVLPIENSLGGSIHRNYDLLLRHNLHIVGEVKLAVRHCLLANHGVNIEDLRRVLSHPQALAQCENTLTKLGLVREAVDDTAGAAKQIAFENLNDAAAVASEKAAKIYGLNIVAKDIQDDCDNVTRFLMLAREPIIPGTNRLFKTSIVFSLEEGPGVLFKALAVFALRQINLTKIESRPLRKHPLRASGGLKYFDYLFYVDFEASMADEVAQNALRHLEEFATFLRVLGSYPVDTTML",binds
2,"CPN10–1 (protein, UniProt O80504 40-139) IKAISTKWEPTKVVPQADRVLVRLEDLPIKSSGGVLLPKAAVKFERYLTGEIISVGSEVGQQVGPGKRVLFSDVSAYEVDLGTDARHCFCKESDLLALVE",binds
3,"5′-adenylylsulfate reductase-1 (APR1) (protein, UniProt P92979 54-465) SSSVKPLNAEPKTKDSMIPLAATMVAEIAEEVEVVEIEDFEELAKKLENASPLEIMDKALEKYGNDIAIAFSGAEDVALIEYAHLTGRPFRVFSLDTGRLNPETYRFFDAVEKHYGIRIEYMFPDSVEVQGLVRSKGLFSFYEDGHQECCRVRKVRPLRRALKGLKAWITGQRKDQSPGTRSEIPVVQVDPVFEGLDGGVGSLVKWNPVANVEGNDVWNFLRTMDVPVNTLHAAGYISIGCEPCTKAVLPGQHEREGRWWWEDAKAKECGLHKGNVKENSDDAKVNGESKSAVADIFKSENLVTLSRQGIENLMKLENRKEPWIVVLYAPWCPFCQAMEASYDELADKLAGSGIKVAKFRADGDQKEFAKQELQLGSFPTILVFPKNSSRPIKYPSEKRDVESLTSFLNLVR",binds
4,"ribose-phosphate pyrophosphokinase 1/phosphoribosyl diphosphate synthetase 1 (PRSI) (protein, UniProt Q42581 50-403) CDMPESLNVGNGNPSIPIINERTLPKFLESARMEKSVNRTNTRLKLFSGTANPALAQEIAWYMGLDLGKVNIKRFADGEIYVQLQESVRGCDVYLVQPTCTPTNENLMELLIMVDACRRASAKKVTAVIPYFGYARADRKTQGRESIAAKLVANLITEAGADRVLACDLHSGQSMGYFDIPVDHVYCQPVILDYLASKSIPSEDLVVVSPDVGGVARARAFAKKLSDAPLAIVDKRRSGHNVAEVMNLIGDVRGKVAIMVDDMIDTAGTIVKGAALLHQEGAREVYACCTHAVFSPPAIERLSGGLLQEVIVTNTLPVAEKNYFPQLTILSVANLLGETIWRVHDDSSVSSIFL",binds
5,"Rubisco assembly factor 2 (RAF2) (protein, UniProt Q9LU63 51-220) SNLAQDFLGDFGARDPYPEEIASQFGDKVLGCQSTEHKILIPNASVLSLSQLQCSPVSSSQPPLSGDDARTLLHKVLGWSIVDNEAGGLKIRCMWKVRDFGCGVELINRIHKVAEASGHYPSLHLESPTQVRAELFTSSIGGLSMNDFIMAAKIDDIKTSDLSPRKRAWA",binds
6,"CLPT1 (protein, UniProt Q93WL3 65-238) STVLNVPIAQPENGSSDKIPKWSARAIKSLAMGELEARKLKYPSTGTEAILMGILVEGTSTVAKFLRGNGVTLFKVRDETLSLLGKSDMYFFSPEHPPLTEPAQKAIAWAIDEKNKSDVDGELTTAYLLLGVWSQKDSAGRQILEKLGFNEDKAKEVEKSMNEDVDLSFKKQGQ",binds
7,"DEAD box RNA helicase (RH3) (EMB1138; globular stage) (protein, UniProt Q8L7S8 61-748) AVATPNSVLSEEAFKSLGLSDHDEYDLDGDNNNVEADDGEELAISKLSLPQRLEESLEKRGITHLFPIQRAVLVPALQGRDIIARAKTGTGKTLAFGIPIIKRLTEEAGDYTAFRRSGRLPKFLVLAPTRELAKQVEKEIKESAPYLSTVCVYGGVSYTIQQSALTRGVDVVVGTPGRIIDLIEGRSLKLGEVEYLVLDEADQMLAVGFEEAVESILENLPTKRQSMLFSATMPTWVKKLARKYLDNPLNIDLVGDQDEKLAEGIKLYAIATTSTSKRTILSDLITVYAKGGKTIVFTQTKRDADEVSLALSNSIATEALHGDISQHQRERTLNAFRQGKFTVLVATDVASRGLDIPNVDLVIHYELPNDPETFVHRSGRTGRAGKEGSAILMHTSSQKRTVRSLERDVGCHFEFISPPTVGDLLESSADQVVATLNGVHPDSIKFFSATAQKLYEEKGTDALAAALAHLSGFSQPPSSRSLLSHEKGWVTLQLIRDPTNARGFLSARSVTGFLSDLYRTAADEVGKIFLIADDRIQGAVFDLPEEIAKELLEKDVPEGNSLSMITKLPPLQDDGPSSDNYGRFSSRDRMPRGGGGSRGSRGGRGGSSRGRDSWGGDDDRGSRRSSGGGSSWSRGGSSSRGSSDDWLIGGRSSSSSRAPSRERSFGGSCFICGKSGHRATDCPDKRGF",binds

# Now from value to binder:
row,binding,Binder
1,binds,"GluTR binding protein (GBP or PGR7) (protein, UniProt Q9LU39 43-317) SVSTTLDTPATASTHKPFPAEVSRSIMELSSVGTLSTLTHDGWPLGVGVRFAVDKDGTPVLCLNRSVSPDKRSALHVQLEQCGLRTPQCTIQGSIGRPGDDTVLKRLSATWREKFGEEVKEDSLYVVAVDRVLQMEDFMEDGIWVASSDYKNASPDPLRDIAEDIVNQINANNMEDIFRFCNVYVDLDFVVSETKMIWMDRLGFDLRVWSPRGVYDVRIPFPMEVTDEKGAKSSFNGMSQLAWEVEKSYCPADFNKVKLLKQVVGSSHSHKGGGQ"
2,binds,"1-deoxy-D-xylulose 5-phosphate synthase (DXS1) (protein, UniProt Q38854 59-717) ASLAEKGEYYSNRPPTPLLDTINYPIHMKNLSVKELKQLSDELRSDVIFNVSKTGGHLGSSLGVVELTVALHYIFNTPQDKILWDVGHQSYPHKILTGRRGKMPTMRQTNGLSGFTKRGESEHDCFGTGHSSTTISAGLGMAVGRDLKGKNNNVVAVIGDGAMTAGQAYEAMNNAGYLDSDMIVILNDNKQVSLPTATLDGPSPPVGALSSALSRLQSNPALRELREVAKGMTKQIGGPMHQLAAKVDEYARGMISGTGSSLFEELGLYYIGPVDGHNIDDLVAILKEVKSTRTTGPVLIHVVTEKGRGYPYAERADDKYHGVVKFDPATGRQFKTTNKTQSYTTYFAEALVAEAEVDKDVVAIHAAMGGGTGLNLFQRRFPTRCFDVGIAEQHAVTFAAGLACEGLKPFCAIYSSFMQRAYDQVVHDVDLQKLPVRFAMDRAGLVGADGPTHCGAFDVTFMACLPNMIVMAPSDEADLFNMVATAVAIDDRPSCFRYPRGNGIGVALPPGNKGVPIEIGKGRILKEGERVALLGYGSAVQSCLGAAVMLEERGLNVTVADARFCKPLDRALIRSLAKSHEVLITVEEGSIGGFGSHVVQFLALDGLLDGKLKWRPMVLPDRYIDHGAPADQLAEAGLMPSHIAATALNLIGAPREALF"
3,binds,"arogenate dehydratase 4 (ADT4) (protein, UniProt O22241 35-424) CGYRSESFSFPNGVSVSRSDWQSSCAILSSKVASVENTGGLADKIAAVNGHTNGSVNLGLVAVESTNGKLAPAQPLTITDLSPAPLHGSSLRVAYQGVPGAYSEAAAGKAYPNCDAIPCDQFDVAFQAVELWIADRAVLPVENSLGGSIHRNYDLLLRHRLHIVGEVQIPVHHCLLALPGVRTDCVSRVISHPQALAQTEHSLDVLTPHAAREAFHDTAAAAEYISANDLHDTAAVASARAAELYNLQILADGIQDDPGNVTRFLMLAREPIIPRTDRPFKTSIVFAAQEHKGTSVLFKVLSAFAFRDISLTKIESRPHHNRPLRVVGDGSFGTSKNFEYMFYVDFEASMAEPRAQNALAEVQEYTSFLRVLGSYPMDMTPWSMTSTEEA"
4,binds,"fibrillin 1a (FBN1a) (protein, UniProt O81439 56-318) ATDIDDEWGQDGVERVFASSSTVSVADKAIESVEETERLKRSLADSLYGTDRGLSVSSDTRAEISELITQLESKNPTPAPNEALFLLNGKWILAYTSFVGLFPLLSRRIEPLVKVDEISQTIDSDSFTVQNSVRFAGPFSTTSFSTNAKFEIRSPKRVQIKFEQGVIGTPQLTDSIEIPESVEVLGQKIDLNPIKGLLTSVQDTASSVARTISNQPPLKFSLPSDNTQSWLLTTYLDKDLRISRGDGGSVYVLIKEGSSLLNP"
5,binds,"5′-adenylylsulfate reductase-2 (APR2) (protein, UniProt P92981 67-454) ASTLIAPEVEEKGGEVEDFEQLAKKLEDASPLEIMDKALERFGDQIAIAFSGAEDVALIEYARLTGKPFRVFSLDTGRLNPETYRLFDAVEKQYGIRIEYMFPDAVEVQALVRNKGLFSFYEDGHQECCRVRKVRPLRRALKGLKAWITGQRKDQSPGTRSEIPIVQVDPVFEGLDGGVGSLVKWNPLANVEGADVWNFLRTMDVPVNALHAQGYVSIGCEPCTRPVLPGQHEREGRWWWEDAKAKECGLHKGNIKEEDGAADSKPAAVQEIFESNNVVALSKGGVENLLKLENRKEAWLVVLYAPWCPFCQAMEASYIELAEKLAGKGVKVAKFRADGEQKEFAKQELQLGSFPTILLFPKRAPRAIKYPSEHRDVDSLMSFVNLLR"
6,binds,"ribose-phosphate pyrophosphokinase (AT2G44530.1) (protein, UniProt O64888 34-394) CNAADPYKFDGGNSAGFHLLTGDTVPASFSRTRLEDSIYQNTTRLRIFSGTANPILAQEISCYLGLDLGKIKIKRFADGEIYVQLQESVRGCDVFLVQPTCPPANENLMELLVMIDACRRASAKTITAVIPYFGYARADRKTQGRESIAAKLVANLITQSGADRVLACDLHSGQSMGYFDIPVDHVYGQPVILDYLASKAISSEDLVVVSPDVGGVARARAFAKKLSDAPLAIVDKRRHGHNVAEVMNLIGDVKGKVAIMVDDMIDTAGTISKGAALLHQEGAREVYACTTHAVFSPPAISRLSSGLFQEVIITNTIPLSEKNYFPQLTVLSVANLLGETIWRVHDDCSGAIEPFSTLGID"

# Results are given in words; binding and its absence hold for the method and conditions named. Binding seen in cells or lysates may run through a third protein. Here binding means that the protein was enriched with, or labelled near, the bait; the list need not be complete. Sequences can lack the tags named with a protein.
